The text below walks through data of paper PMC12595865.

By UniProt entry, the sequences of proteins in these tests, tags left out.
UniProt P15090: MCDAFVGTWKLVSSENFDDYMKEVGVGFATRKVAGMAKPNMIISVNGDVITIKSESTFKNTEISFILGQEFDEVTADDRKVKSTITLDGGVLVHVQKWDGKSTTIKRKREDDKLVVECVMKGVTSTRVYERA

The assay addresses Flag-tagged FABP4 (fatty acid-binding protein 4) (UniProt P15090). As to the kind of experiment: co-IP; HEK293T cells co-transfected with Myc-S100A9 or control vector together with Flag-FABP4; extracts immunoprecipitated with anti-Flag or anti-Myc antibody, Western blot with anti-Myc or anti-Flag; IP buffer (Thermo 87787), protein A/G magnetic beads, 4 °C overnight.

Results are given in words; binding and its absence hold for the method and conditions named. Binding seen in cells or lysates may run through a third protein. Some binding calls cover weakened binding; strength is not graded here. Sequences can lack the tags named with a protein.

B1: Myc-tagged S100A9 (protein, UniProt P06702 1-114)
chain: MTCKMSQLERNIETIINTFHQYSVKLGHPDTLNQGEFKELVRKDLQNFLKKENKNEKVIEHIMEDLDTNADKQLSFEEFIMLMARLTWASHEKMHEGDEGPGHHHKPGLGEGTP
As for B1, the binding entry is recorded as “binds”.
